Taken from: PubChem BioAssay AID504791 (Drosophila RNAi Screening Center, 2011)
In all, the deposit lists about 23,000 reagents; below is a random part of those that have a named target and a result. Over the whole deposit, 199 (0.86%) were called active. 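Plate-scaled ratios behind the calls are not deposited; printed light signals are raw; many rows marked increased or decreased are still called inactive.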 Reagents against one gene are numbered here. Not stated in the record: the direction of the score.

- Screen: 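Genes of the fly required for silencing by miRNA, siRNA or endo-siRNA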 (primary screen)
- System: Drosophila S2-derived reporter cells
- Reagents: long dsRNA against Drosophila genes, about 150-250 ng dsRNA per well (siRNA assay); about 80-120 ng (miRNA assay)
- Timing: about 5 days (siRNA assay); about 4 days (miRNA assay)
- Challenge: copper sulfate induction of reporters: 25 µM (siRNA assay); 200 mM stated (miRNA assay), 1-2 days before reading
- Measurement: 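Dual luciferase assay: Renilla to firefly signal ratio in each well, scaled to the mean ratio of its plate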
- Hit rule: 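First-pass picks had plate-scaled ratios over 1.5 for the siRNA assay, over 1.6 for the miRNA assay, or under 0.6; two distinct dsRNAs had to score alike on retest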

predicted target | reagent | stable siRNA reporter change | miRNA reporter change | stable assay Renilla, run 1 (luminescence) | stable assay firefly, run 1 (luminescence) | outcome
Qsox3 (Quiescin sulfhydryl oxidase 3) | 1 | – | – | 7545 | 2.82e5 | inactive
CG15578 | 1 | – | – | 6623 | 4.20e5 | inactive
Rcd-1 (Required for cell differentiation 1) | 1 | – | – | 7151 | 4.00e5 | inactive
Marf1 (Meiosis regulator and mRNA stability factor 1) | 1 | – | – | 7430 | 4.50e5 | inactive
Marf1 (Meiosis regulator and mRNA stability factor 1) | 2 | – | – | 5159 | 2.90e5 | inactive
DCTN6-p27 (Dynactin 6, p27 subunit) | 1 | reporter ratio raised past the hit cutoff | – | 5619 | 78082 | inactive
DCTN6-p27 (Dynactin 6, p27 subunit) | 2 | – | – | 4008 | 3.25e5 | inactive
CG15549 | 1 | – | – | 5592 | 3.26e5 | inactive
Oct-TyrR (Octopamine-Tyramine receptor) | 1 | – | – | 7924 | 4.20e5 | inactive
Npc2a (Niemann-Pick type C-2a) | 1 | – | – | 7751 | 5.45e5 | inactive
CG13733 | 1 | – | – | 8274 | 4.18e5 | inactive
CG13996 | 1 | reporter ratio lowered past the hit cutoff | – | 3923 | 3.67e5 | inactive
ndl (nudel) | 1 | – | – | 6012 | 3.11e5 | inactive
CG8929 | 1 | – | – | 9340 | 3.65e5 | inactive
CG8929 | 2 | – | – | 4780 | 4.63e5 | inactive
CG11977 | 1 | – | – | 7131 | 4.01e5 | inactive
TBC1D16 (TBC1 domain family member 16) | 1 | – | – | 7470 | 4.35e5 | inactive
l(2)k09913 (lethal (2) k09913) | 1 | reporter ratio raised past the hit cutoff | – | 39495 | 4.04e5 | inactive
Stip1 (Stress induced phosphoprotein 1) | 1 | – | – | 13213 | 8.74e5 | inactive
lncRNA:sphinx (long non-coding RNA:sphinx) | 1 | reporter ratio lowered past the hit cutoff | – | 4751 | 4.87e5 | inactive
CG8089 | 1 | – | – | 6207 | 2.63e5 | inactive
TwdlJ (TweedleJ) | 1 | reporter ratio lowered past the hit cutoff | – | 6203 | 7.26e5 | inactive
CG14538 (retired record) | 1 | – | – | 7378 | 4.65e5 | inactive
CG14538 (retired record) | 2 | – | reporter ratio lowered past the hit cutoff | – | – | inactive
CG14431 | 1 | – | – | 4975 | 3.02e5 | inactive
CG30053 | 1 | – | – | 5278 | 2.72e5 | inactive
Rac2 | 1 | reporter ratio lowered past the hit cutoff | – | 4503 | 5.23e5 | inactive
Nipsnap | 1 | – | – | 7486 | 3.70e5 | inactive
CG13766 | 1 | – | – | 7324 | 3.41e5 | inactive
CG3777 | 1 | – | – | 4427 | 3.66e5 | inactive
CG9855 | 1 | – | – | 4271 | 3.24e5 | inactive
CG31106 | 1 | – | – | 6719 | 3.06e5 | inactive
CG8586 | 1 | – | – | 8395 | 4.25e5 | inactive
CG42342 | 1 | – | – | 3631 | 3.54e5 | inactive
CG42342 | 2 | – | reporter ratio raised past the hit cutoff | 3395 | 2.60e5 | inactive
CG42342 | 3 | – | – | 6886 | 5.17e5 | inactive
CG42342 | 4 | – | – | 6763 | 4.56e5 | inactive
CG42342 | 5 | – | – | 6243 | 4.22e5 | inactive
CG42342 | 6 | – | – | 8874 | 4.46e5 | inactive
CG42342 | 7 | – | – | 5387 | 5.64e5 | inactive
CG42342 | 8 | – | – | 4008 | 3.53e5 | inactive
Drp1 (Dynamin related protein 1) | 1 | – | – | 11653 | 5.68e5 | inactive
CG9641 | 1 | – | – | 84105 | 3.30e5 | inactive
bgcn (benign gonial cell neoplasm) | 1 | – | – | 5495 | 2.97e5 | inactive
bgcn (benign gonial cell neoplasm) | 2 | – | – | 6042 | 3.15e5 | inactive
CHOp24 | 1 | – | – | 8918 | 5.95e5 | inactive
CG4194 | 1 | – | – | 9289 | 4.67e5 | inactive
sqa (spaghetti-squash activator) | 1 | – | – | 6847 | 3.27e5 | inactive
sqa (spaghetti-squash activator) | 2 | – | – | 8209 | 4.16e5 | inactive
CG15019 | 1 | reporter ratio lowered past the hit cutoff | – | 5600 | 6.18e5 | inactive
uncNacbeta | 1 | – | – | 7781 | 5.37e5 | inactive
Mst57Db (Male-specific RNA 57Db) | 1 | – | – | 10582 | 6.32e5 | inactive
inaF-B | 1 | – | – | 5792 | 3.87e5 | inactive
Mics1 (Mitochondrial morphology and cristae structure 1) | 1 | – | – | 6491 | 3.75e5 | inactive
fzr (fizzy-related) | 1 | – | – | 6375 | 3.03e5 | inactive
CG12546 | 1 | – | – | 8723 | 4.52e5 | inactive
CG7083 | 1 | – | – | 5771 | 4.03e5 | inactive
CG10321 | 1 | – | – | 4939 | 5.08e5 | inactive
Iru (Iruka) | 1 | – | – | 9395 | 4.16e5 | inactive
Oseg4 (Outer segment 4) | 1 | – | – | 12034 | 4.72e5 | inactive
CG14441 | 1 | – | – | 4827 | 1.87e5 | inactive
CG13377 | 1 | – | – | 6135 | 3.42e5 | inactive
side-II (sidestep II) | 1 | – | – | 5943 | 4.42e5 | inactive
side-II (sidestep II) | 2 | – | – | 5548 | 4.23e5 | inactive
side-II (sidestep II) | 3 | – | – | 7786 | 3.87e5 | inactive
side-II (sidestep II) | 4 | – | – | 5516 | 4.91e5 | inactive
side-II (sidestep II) | 5 | – | – | 5323 | 5.81e5 | inactive
side-II (sidestep II) | 6 | – | – | 3447 | 2.92e5 | inactive
Jon25Bii (Jonah 25Bii) | 1 | – | – | 7624 | 3.80e5 | inactive
Gmap (Golgi microtubule-associated protein) | 1 | – | – | 8130 | 5.46e5 | inactive
Gmap (Golgi microtubule-associated protein) | 2 | – | – | 5628 | 4.70e5 | inactive
CheA75a (Chemosensory protein A 75a) | 1 | – | – | 7294 | 2.77e5 | inactive
CG17145 | 1 | – | – | 7460 | 5.19e5 | inactive
tra (transformer) | 1 | – | – | 8138 | 3.50e5 | inactive
CG6479 | 1 | – | – | 8295 | 4.03e5 | inactive
w (white) | 1 | – | – | 8696 | 3.97e5 | inactive
w (white) | 2 | – | – | 7283 | 3.38e5 | inactive
CG31675 | 1 | – | – | 4758 | 2.49e5 | inactive
loj (logjam) | 1 | – | – | 7360 | 4.07e5 | inactive
CG8788 | 1 | – | – | 6667 | 3.92e5 | inactive
CG32812 | 1 | – | – | 7542 | 3.73e5 | inactive
CG9067 | 1 | – | – | 6083 | 3.49e5 | inactive
Dys (Dystrophin) | 1 | – | – | 4783 | 4.64e5 | inactive
Dys (Dystrophin) | 2 | – | – | 3131 | 2.79e5 | inactive
Dys (Dystrophin) | 3 | – | – | 6996 | 2.61e5 | inactive
Dys (Dystrophin) | 4 | – | – | 6787 | 2.86e5 | inactive
Dys (Dystrophin) | 5 | – | – | 7348 | 4.10e5 | inactive
Dys (Dystrophin) | 6 | – | – | 6434 | 3.06e5 | inactive
Dys (Dystrophin) | 7 | – | – | 6931 | 3.04e5 | inactive

Single entries from above.
w (white) #2, stable assay Renilla, run 1 (luminescence) → 7283
CG4194, outcome = inactive
Value of CG14441 in “stable assay firefly, run 1 (luminescence)”: 1.87e5
Under “stable assay Renilla, run 1 (luminescence)”, Dys (Dystrophin) #4 is entered as 6787
Under “stable assay firefly, run 1 (luminescence)”, CG8089 is entered as 2.63e5
Oct-TyrR (Octopamine-Tyramine receptor), outcome → inactive
